# Read-outs that look alike come from different tables or passages of the source. No constants are given. Whether binding was seen depends on the method and setting. Binding seen in cells or lysates may run through a third protein. Here binding means that the protein was enriched with, or labelled near, the bait; the list need not be complete. For some assays here: No binding means not detected with the bait. For some assays here: Where a sequence is shown, tags or fusion partners need not be part of it.
# Sequences of proteins named here, by UniProt entry; tags and fusion partners are left off.
# UniProt Q16630: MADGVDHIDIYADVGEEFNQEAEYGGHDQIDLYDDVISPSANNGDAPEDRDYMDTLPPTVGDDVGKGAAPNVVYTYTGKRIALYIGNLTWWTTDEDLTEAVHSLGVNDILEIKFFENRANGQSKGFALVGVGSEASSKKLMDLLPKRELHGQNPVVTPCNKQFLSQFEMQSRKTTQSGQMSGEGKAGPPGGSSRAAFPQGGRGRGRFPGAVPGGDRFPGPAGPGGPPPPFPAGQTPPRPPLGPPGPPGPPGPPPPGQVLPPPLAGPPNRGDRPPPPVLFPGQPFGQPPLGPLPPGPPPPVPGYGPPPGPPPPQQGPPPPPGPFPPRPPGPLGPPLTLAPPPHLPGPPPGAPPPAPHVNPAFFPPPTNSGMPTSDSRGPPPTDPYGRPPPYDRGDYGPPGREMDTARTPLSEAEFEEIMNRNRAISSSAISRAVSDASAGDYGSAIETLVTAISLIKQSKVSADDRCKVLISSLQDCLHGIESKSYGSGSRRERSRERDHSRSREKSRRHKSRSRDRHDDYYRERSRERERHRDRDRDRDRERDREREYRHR
# UniProt P51003: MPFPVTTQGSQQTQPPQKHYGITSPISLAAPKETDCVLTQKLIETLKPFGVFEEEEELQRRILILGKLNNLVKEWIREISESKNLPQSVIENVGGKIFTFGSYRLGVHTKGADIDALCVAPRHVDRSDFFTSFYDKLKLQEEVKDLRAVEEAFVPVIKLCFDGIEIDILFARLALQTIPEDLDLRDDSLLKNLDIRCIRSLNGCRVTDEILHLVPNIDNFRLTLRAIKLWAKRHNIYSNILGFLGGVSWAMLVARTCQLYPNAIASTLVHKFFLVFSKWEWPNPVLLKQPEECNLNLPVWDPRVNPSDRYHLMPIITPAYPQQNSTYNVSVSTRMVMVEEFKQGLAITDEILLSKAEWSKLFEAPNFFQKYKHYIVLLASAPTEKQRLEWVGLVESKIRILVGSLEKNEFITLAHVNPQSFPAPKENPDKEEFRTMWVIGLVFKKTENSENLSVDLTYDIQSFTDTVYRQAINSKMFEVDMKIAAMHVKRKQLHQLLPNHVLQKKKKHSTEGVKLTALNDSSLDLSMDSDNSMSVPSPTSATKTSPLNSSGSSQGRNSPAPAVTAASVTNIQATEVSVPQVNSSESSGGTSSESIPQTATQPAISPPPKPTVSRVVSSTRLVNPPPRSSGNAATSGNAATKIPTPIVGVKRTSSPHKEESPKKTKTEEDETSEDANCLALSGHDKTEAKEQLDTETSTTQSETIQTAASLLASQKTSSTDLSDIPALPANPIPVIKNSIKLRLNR
# UniProt Q6NZY4: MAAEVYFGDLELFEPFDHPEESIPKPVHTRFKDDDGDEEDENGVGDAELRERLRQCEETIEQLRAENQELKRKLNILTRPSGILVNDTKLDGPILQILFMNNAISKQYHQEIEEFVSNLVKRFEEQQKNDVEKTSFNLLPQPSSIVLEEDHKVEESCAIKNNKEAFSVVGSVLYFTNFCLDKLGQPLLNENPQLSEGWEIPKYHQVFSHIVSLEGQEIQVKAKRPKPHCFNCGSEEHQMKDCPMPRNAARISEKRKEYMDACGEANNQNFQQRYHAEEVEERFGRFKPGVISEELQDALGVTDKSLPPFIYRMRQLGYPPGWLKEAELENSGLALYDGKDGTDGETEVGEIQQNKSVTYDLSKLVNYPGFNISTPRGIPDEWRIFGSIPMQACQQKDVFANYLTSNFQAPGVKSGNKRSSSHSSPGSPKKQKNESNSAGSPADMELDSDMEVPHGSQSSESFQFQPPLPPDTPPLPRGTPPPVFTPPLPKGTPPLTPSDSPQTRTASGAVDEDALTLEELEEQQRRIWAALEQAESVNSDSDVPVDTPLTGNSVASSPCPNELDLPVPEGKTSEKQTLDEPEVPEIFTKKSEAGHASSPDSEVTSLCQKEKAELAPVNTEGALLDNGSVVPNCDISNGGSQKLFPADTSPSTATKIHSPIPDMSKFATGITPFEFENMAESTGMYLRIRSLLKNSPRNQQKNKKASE
# UniProt Q9BWT3: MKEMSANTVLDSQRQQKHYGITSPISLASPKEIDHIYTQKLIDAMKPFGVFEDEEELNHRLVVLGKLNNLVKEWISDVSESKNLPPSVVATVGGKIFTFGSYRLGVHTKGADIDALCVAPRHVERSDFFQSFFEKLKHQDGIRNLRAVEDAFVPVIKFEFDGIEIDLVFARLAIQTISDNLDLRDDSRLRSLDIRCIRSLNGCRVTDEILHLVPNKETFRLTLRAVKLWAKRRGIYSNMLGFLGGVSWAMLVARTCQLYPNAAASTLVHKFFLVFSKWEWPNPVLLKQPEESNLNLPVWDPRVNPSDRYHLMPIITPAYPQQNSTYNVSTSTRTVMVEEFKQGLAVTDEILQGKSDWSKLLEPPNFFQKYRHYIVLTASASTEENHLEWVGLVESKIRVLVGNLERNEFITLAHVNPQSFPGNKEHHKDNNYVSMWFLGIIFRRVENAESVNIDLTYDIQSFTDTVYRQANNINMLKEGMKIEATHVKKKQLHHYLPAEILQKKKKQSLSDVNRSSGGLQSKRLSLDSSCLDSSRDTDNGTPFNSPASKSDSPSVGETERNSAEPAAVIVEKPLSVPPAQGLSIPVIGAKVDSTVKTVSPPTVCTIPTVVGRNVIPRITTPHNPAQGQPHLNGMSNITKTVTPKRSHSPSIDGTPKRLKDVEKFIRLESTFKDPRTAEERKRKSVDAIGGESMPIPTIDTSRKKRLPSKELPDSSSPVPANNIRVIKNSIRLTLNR
# T1: Flag-HA-ZFC3H1 (human (endogenous in HEK-293T)), O60293
# T1 chain: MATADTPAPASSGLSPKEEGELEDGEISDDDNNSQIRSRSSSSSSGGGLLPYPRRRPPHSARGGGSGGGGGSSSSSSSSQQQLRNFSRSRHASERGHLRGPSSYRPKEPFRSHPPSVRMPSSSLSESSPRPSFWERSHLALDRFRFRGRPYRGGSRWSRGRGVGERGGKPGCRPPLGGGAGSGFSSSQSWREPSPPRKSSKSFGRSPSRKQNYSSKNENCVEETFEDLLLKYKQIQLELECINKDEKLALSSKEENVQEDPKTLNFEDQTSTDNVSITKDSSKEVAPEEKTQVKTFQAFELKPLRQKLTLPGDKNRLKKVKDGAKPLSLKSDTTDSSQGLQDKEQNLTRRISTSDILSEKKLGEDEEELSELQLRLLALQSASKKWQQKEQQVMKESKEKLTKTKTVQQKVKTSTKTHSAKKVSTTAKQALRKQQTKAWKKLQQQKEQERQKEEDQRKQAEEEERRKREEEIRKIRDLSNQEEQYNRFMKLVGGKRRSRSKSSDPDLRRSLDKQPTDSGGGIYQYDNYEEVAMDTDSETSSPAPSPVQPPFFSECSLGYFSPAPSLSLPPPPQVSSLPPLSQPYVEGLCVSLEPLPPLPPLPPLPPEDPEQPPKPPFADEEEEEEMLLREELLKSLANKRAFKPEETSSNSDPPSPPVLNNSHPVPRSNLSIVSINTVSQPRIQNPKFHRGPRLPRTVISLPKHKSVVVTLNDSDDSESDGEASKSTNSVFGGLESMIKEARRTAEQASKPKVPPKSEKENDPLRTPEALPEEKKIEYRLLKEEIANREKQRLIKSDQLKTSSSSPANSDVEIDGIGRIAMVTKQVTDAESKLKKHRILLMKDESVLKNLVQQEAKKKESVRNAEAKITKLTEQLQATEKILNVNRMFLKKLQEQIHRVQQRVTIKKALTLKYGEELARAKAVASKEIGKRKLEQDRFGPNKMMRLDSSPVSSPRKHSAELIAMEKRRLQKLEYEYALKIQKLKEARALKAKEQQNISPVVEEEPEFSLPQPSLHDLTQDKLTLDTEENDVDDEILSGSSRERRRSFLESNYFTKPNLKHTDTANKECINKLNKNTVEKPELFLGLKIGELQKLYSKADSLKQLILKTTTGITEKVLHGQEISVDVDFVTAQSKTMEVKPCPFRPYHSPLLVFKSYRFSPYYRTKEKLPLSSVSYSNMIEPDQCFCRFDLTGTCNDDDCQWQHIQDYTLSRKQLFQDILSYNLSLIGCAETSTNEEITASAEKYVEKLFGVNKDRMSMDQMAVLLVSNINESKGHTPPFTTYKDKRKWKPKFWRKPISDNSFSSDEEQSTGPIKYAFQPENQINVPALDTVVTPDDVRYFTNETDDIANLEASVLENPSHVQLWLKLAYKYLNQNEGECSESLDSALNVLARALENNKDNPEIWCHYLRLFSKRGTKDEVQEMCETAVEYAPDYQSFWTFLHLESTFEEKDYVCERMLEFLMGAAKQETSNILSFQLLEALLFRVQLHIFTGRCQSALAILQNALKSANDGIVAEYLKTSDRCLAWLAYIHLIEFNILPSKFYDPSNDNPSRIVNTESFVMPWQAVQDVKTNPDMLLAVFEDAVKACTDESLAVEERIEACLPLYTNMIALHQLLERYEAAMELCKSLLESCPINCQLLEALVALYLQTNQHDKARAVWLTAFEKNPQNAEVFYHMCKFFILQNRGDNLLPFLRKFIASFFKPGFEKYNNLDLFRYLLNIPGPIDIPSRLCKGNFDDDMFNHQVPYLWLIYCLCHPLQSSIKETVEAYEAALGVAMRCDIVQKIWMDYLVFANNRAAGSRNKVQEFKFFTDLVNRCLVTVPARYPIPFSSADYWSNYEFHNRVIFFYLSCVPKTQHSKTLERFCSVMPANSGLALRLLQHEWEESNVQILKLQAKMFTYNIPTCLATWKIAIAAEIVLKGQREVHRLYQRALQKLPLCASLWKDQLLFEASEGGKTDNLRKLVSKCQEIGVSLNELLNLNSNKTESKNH
# Legend:
# Experiment in all cases: affinity purification with mass spectrometry; Dignam high salt nuclear extracts of HEK-293T cells expressing Flag-HA-ZFC3H1; sequential Flag and HA immunoprecipitations; control HEK-293T sample; interactants with 2 or more peptides and FC > 2
# [1] = target: Flag-HA-ZFC3H1 (human (endogenous in HEK-293T)) (UniProt O60293)
# [2] = target: Flag-HA-ZFC3H1 (human (endogenous in HEK-293T)) (UniProt O60293); remark: listed apart in the source
# [3] = target: T1, Flag-HA-ZFC3H1 (human (endogenous in …)); conditions: remark: other sources report otherwise
Molecule,binding [1],binding [2],other results
CPSF6 (from UniProt Q16630 1-551),binds,,
PAPα (from UniProt P51003 1-745) (enzyme),no binding,,
ZCCHC8 (from UniProt Q6NZY4 1-707),no binding,,
polyA polymerase gamma (PAPγ) (from UniProt Q9BWT3 1-736) (enzyme),binds,,
"ZC3H14 (protein, UniProt Q6PJT7 1-736) MEIGTEISRKIRSAIKGKLQELGAYVDEELPDYIMVMVANKKSQDQMTEDLSLFLGNNTIRFTVWLHGVLDKLRSVTTEPSSLKSSDTNIFDSNVPSNKSNFSRGDERRHEAAVPPLAIPSARPEKRDSRVSTSSQESKTTNVRQTYDDGAATRLMSTVKPLREPAPSEDVIDIKPEPDDLIDEDLNFVQENPLSQKKPTVTLTYGSSRPSIEIYRPPASRNADSGVHLNRLQFQQQQNSIHAAKQLDMQSSWVYETGRLCEPEVLNSLEETYSPFFRNNSEKMSMEDENFRKRKLPVVSSVVKVKKFNHDGEEEEEDDDYGSRTGSISSSVSVPAKPERRPSLPPSKQANKNLILKAISEAQESVTKTTNYSTVPQKQTLPVAPRTRTSQEELLAEVVQGQSRTPRISPPIKEEETKGDSVEKNQGTQQRQLLSRLQIDPVMAETLQMSQDYYDMESMVHADTRSFILKKPKLSEEVVVAPNQESGMKTADSLRVLSGHLMQTRDLVQPDKPASPKFIVTLDGVPSPPGYMSDQEEDMCFEGMKPVNQTAASNKGLRGLLHPQQLHLLSRQLEDPNGSFSNAEMSELSVAQKPEKLLERCKYWPACKNGDECAYHHPISPCKAFPNCKFAEKCLFVHPNCKYDAKCTKPDCPFTHVSRRIPVLSPKPAVAPPAPPSSSQLCRYFPACKKMECPFYHPKHCRFNTQCTRPDCTFYHPTINVPPRHALKWIRPQTSE",,binds,
"ZC3H3 (protein, UniProt Q8IXZ2 1-948) MEEKEILRRQIRLLQGLIDDYKTLHGNAPAPGTPAASGWQPPTYHSGRAFSARYPRPSRRGYSSHHGPSWRKKYSLVNRPPGPSDPPADHAVRPLHGARGGQPPVPQQHVLERQVQLSQGQNVVIKVKPPSKSGSASASGAQRGSLEEFEETPWSDQRPREGEGEPPRGQLQPSRPTRARGTCSVEDPLLVCQKEPGKPRMVKSVGSVGDSPREPRRTVSESVIAVKASFPSSALPPRTGVALGRKLGSHSVASCAPQLLGDRRVDAGHTDQPVPSGSVGGPARPASGPRQAREASLVVTCRTNKFRKNNYKWVAASSKSPRVARRALSPRVAAENVCKASAGMANKVEKPQLIADPEPKPRKPATSSKPGSAPSKYKWKASSPSASSSSSFRWQSEASSKDHASQLSPVLSRSPSGDRPAVGHSGLKPLSGETPLSAYKVKSRTKIIRRRSSTSLPGDKKSGTSPAATAKSHLSLRRRQALRGKSSPVLKKTPNKGLVQVTTHRLCRLPPSRAHLPTKEASSLHAVRTAPTSKVIKTRYRIVKKTPASPLSAPPFPLSLPSWRARRLSLSRSLVLNRLRPVASGGGKAQPGSPWWRSKGYRCIGGVLYKVSANKLSKTSGQPSDAGSRPLLRTGRLDPAGSCSRSLASRAVQRSLAIIRQARQRREKRKEYCMYYNRFGRCNRGERCPYIHDPEKVAVCTRFVRGTCKKTDGTCPFSHHVSKEKMPVCSYFLKGICSNSNCPYSHVYVSRKAEVCSDFLKGYCPLGAKCKKKHTLLCPDFARRGACPRGAQCQLLHRTQKRHSRRAATSPAPGPSDATARSRVSASHGPRKPSASQRPTRQTPSSAALTAAAVAAPPHCPGGSASPSSSKASSSSSSSSSPPASLDHEAPSLQEAALAAACSNRLCKLPSFISLQSSPSPGAQPRVRAPRAPLTKDSGKPLHIKPRL",,binds,
"PABPN1, Q86U42 1-306 (protein) MAAAAAAAAAAGAAGGRGSGPGRRRHLVPGAGGEAGEGAPGGAGDYGNGLESEELEPEELLLEPEPEPEPEEEPPRPRAPPGAPGPGPGSGAPGSQEEEEEPGLVEGDPGDGAIEDPELEAIKARVREMEEEAEKLKELQNEVEKQMNMSPPPGNAGPVIMSIEEKMEADARSIYVGNVDYGATAEELEAHFHGCGSVNRVTILCDKFSGHPKGFAYIEFSDKESVRTSLALDESLFRGRQIKVIPKRTNRPGISTTDRGFPRARYRARTTNYNSSRSRFYSGFNSRPRGRVYRGRARATSWYSPY",,,binding [3]: binds
"RBM27 (protein, UniProt Q9P2N5 1-1060) MLIEDVDALKSWLAKLLEPICDADPSALANYVVALVKKDKPEKELKAFCADQLDVFLQKETSGFVDKLFESLYTKNYLPLLEPVKPEPKPLVQEKEEIKEEVFQEPAEEERDGRKKKYPSPQKTRSESSERRTREKKREDGKWRDYDRYYERNELYREKYDWRRGRSKSRSKSRGLSRSRSRSRGRSKDRDPNRNVEHRERSKFKSERNDLESSYVPVSAPPPNSSEQYSSGAQSIPSTVTVIAPAHHSENTTESWSNYYNNHSSSNSFGRNLPPKRRCRDYDERGFCVLGDLCQFDHGNDPLVVDEVALPSMIPFPPPPPGLPPPPPPGMLMPPMPGPGPGPGPGPGPGPGPGPGPGHSMRLPVPQGHGQPPPSVVLPIPRPPITQSSLINSRDQPGTSAVPNLASVGTRLPPPLPQNLLYTVSERQPMYSREHGAAASERLQLGTPPPLLAARLVPPRNLMGSSIGYHTSVSSPTPLVPDTYEPDGYNPEAPSITSSGRSQYRQFFSRTQTQRPNLIGLTSGDMDVNPRAANIVIQTEPPVPVSINSNITRVVLEPDSRKRAMSGLEGPLTKKPWLGKQGNNNQNKPGFLRKNQYTNTKLEVKKIPQELNNITKLNEHFSKFGTIVNIQVAFKGDPEAALIQYLTNEEARKAISSTEAVLNNRFIRVLWHRENNEQPTLQSSAQLLLQQQQTLSHLSQQHHHLPQHLHQQQVLVAQSAPSTVHGGIQKMMSKPQTSGAYVLNKVPVKHRLGHAGGNQSDASHLLNQSGGAGEDCQIFSTPGHPKMIYSSSNLKTPSKLCSGSKSHDVQEVLKKKQEAMKLQQDMRKKRQEVLEKQIECQKMLISKLEKNKNMKPEERANIMKTLKELGEKISQLKDELKTSSAVSTPSKVKTKTEAQKELLDTELDLHKRLSSGEDTTELRKKLSQLQVEAARLGILPVGRGKTMSSQGRGRGRGRGGRGRGSLNHMVVDHRPKALTVGGFIEEEKEDLLQHFSTANQGPKFKDRRLQISWHKPKVPSISTETEEEEVKEEETETSDLFLPDDDDEDEDEYESRSWRR",,binds,
